Measurements reported in PubChem BioAssay AID652272 (Drosophila RNAi Screening Center, 2013)
Assay: 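Genome-wide knock-down search for components of Hedgehog signalling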 (primary screen). Cells: Drosophila clone 8 (Cl8) cells. Knock-down reagent: long dsRNA against Drosophila genes. Measurement: 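Firefly light from a Hedgehog-responsive ptc promoter reporter and Renilla reference light, both read on a plate reader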. Scale: firefly Hh reporter signal: higher = more ptc reporter light; Renilla reference signal: higher = more Renilla control light. Call rule: 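Called a hit if the two-replicate mean z-score lies below -2 or above +3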. Calls: active = hit: reporter lowered or raised; inactive = not a hit.
The deposit covers about 21,000 reagents; this is an unselected part of those with a known target gene and a result. Over the whole deposit, 503 (2.4%) are marked active. 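Raw plate light values, not normalised; calls rest on replicate z-scores that were not deposited; hits include reporter decreases as well as increases.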 Entries without a mark were called inactive. Reagents against one gene are numbered here. A plus sign joins genes that one reagent is predicted to hit. Reagent sequences are not shown. Not stated in the record: the amount of reagent, the time to read-out.

| target gene | reagent no. | firefly Hh reporter signal, replicate 1 | firefly Hh reporter signal, replicate 2 | firefly Hh reporter signal, replicate 3 | Renilla reference signal, replicate 1 | Renilla reference signal, replicate 2 |
| --- | --- | --- | --- | --- | --- | --- |
| RpL40 | 1 | 35361 (active) | 21504 | – | 1083 | 4425 |
| CG13658 | 1 | 6.62e5 | 1.23e5 | – | 33111 | 3906 |
| CG11635 | 1 | 92983 | 61242 | – | 2294 | 5229 |
| CG12481 | 1 | 48871 | 1.67e5 | – | 1344 | 6576 |
| MED1 | 1 | 1.32e5 | 1.17e5 | – | 5440 | 4683 |
| ImpE3 | 1 | 80592 | 1.02e5 | – | 2938 | 2678 |
| CG13670 | 1 | 56224 | 50984 | – | 4378 | 3594 |
| Asciz | 1 | 80499 | 29028 | – | 2016 | 739 |
| Rbp1 | 1 | 1.11e5 | 99665 | – | 4168 | 3347 |
| Hrb98DE | 1 | 1.27e5 | 71812 | – | 3037 | 2123 |
| Cep290 | 1 | 86474 | 64327 | – | 3261 | 4512 |
| CkIIalpha-i3 | 1 | 1.51e5 | 58714 | – | 6534 | 3168 |
| grk | 1 | 1.15e5 | 72915 | – | 5013 | 2193 |
| CG18171 | 1 | 68169 | 43060 | – | 1780 | 2996 |
| CG11788 | 1 | 61354 | 42194 | – | 1772 | 3031 |
| CG13840 | 1 | 4.22e5 | 58729 | – | 22491 | 1793 |
| CR43142 | 1 | 6.16e5 | 2.31e5 | – | 30781 | 9005 |
| Prosbeta2R2 | 1 | 87688 | 1.15e5 | – | 3369 | 3312 |
| CG17198 + CG17197 | 1 | 6.96e5 | 1.60e5 | – | 33697 | 5027 |
| CG17198 + CG17197 | 2 | 6.04e5 | 1.17e5 | – | 27863 | 3578 |
| CG8560 | 1 | 1.01e5 | 52199 | – | 4422 | 2581 |
| CG1537 | 1 | 1.22e5 | 3.22e5 | – | 3722 | 12045 |
| Atac2 | 1 | 86372 | 58624 | – | 3376 | 2453 |
| TTLL6A | 1 | 99225 | 87629 | – | 2355 | 5173 |
| Ddx56 | 1 | 45657 | 1.89e5 | – | 1505 | 9783 |
| PAN3 | 1 | 69291 | 75173 | – | 3584 | 3497 |
| CG15563 | 1 | 1.89e5 | 97024 | – | 6547 | 853 |
| Opa1 | 1 | 1.17e5 | 90051 | – | 5347 | 4144 |
| CG16700 | 1 | 65298 | 1.47e5 | – | 1952 | 6672 |
| CG33689 | 1 | 2.42e5 | – | – | 5779 | – |
| Membrin | 1 | 43394 | 93958 | – | 5124 | 5920 |
| ND-13B | 1 | 48337 | 31792 | 61126 | 4411 | 4128 |
| CG10591 | 1 | 1.38e5 | 1.05e5 | – | 5286 | 4300 |
| Smyd4-4 | 1 | 62369 | 45275 | – | 2905 | 2160 |
| wbl | 1 | 66848 | 46740 | – | 1364 | 3616 |
| drosha | 1 | 70240 | 38203 | – | 2456 | 1465 |
| DNAlig4 | 1 | 90723 | 2.49e5 | – | 3909 | 10843 |
| Nelf-A | 1 | 1.23e5 | 1.17e5 | – | 5561 | 5108 |
| mge | 1 | 74690 | 44848 | – | 2389 | 3714 |
| CG10147 | 1 | 51458 | 64730 | – | 5528 | 4416 |
| CG42821 | 1 | 53096 | 2.87e5 | – | 10839 | 6523 |
| CG14245 | 1 | 76325 | 1.00e5 | – | 2193 | 3376 |
| SPH93 | 1 | 1.21e5 | 66276 | – | 3184 | 6118 |
| Rpn3 | 1 | 37013 (active) | 22791 | – | 1369 | 4284 |
| Ifrd1 | 1 | 1.00e5 | 69560 | – | 1824 | 6630 |
| Ifrd1 | 2 | 1.28e5 | 68439 | – | 1995 | 6896 |
| CG6454 | 1 | 1.14e5 | 1.27e5 | – | 4524 | 4467 |
| Sqor | 1 | 1.14e5 | 58330 | – | 4457 | 2091 |
| CG7407 | 1 | 97945 | 87480 | – | 4084 | 3721 |
| CG14915 | 1 | 80083 | 70598 | – | 2516 | 7072 |
| tou | 1 | 1.56e5 | 1.16e5 | – | 6073 | 4616 |
| Ir75b | 1 | 98656 | – | – | 4089 | 2848 |
| PMCA | 1 | 4.13e5 | 1.90e5 | – | 21760 | 4240 |
| PMCA | 2 | 4.41e5 | 2.16e5 | – | 22736 | 4565 |
| PMCA | 3 | 1.10e5 | 55097 | – | 2566 | 1853 |
| Teh4 | 1 | 74296 | 45046 | – | 1588 | 3296 |
| Tm1 | 1 | 38992 | 1.85e5 | – | 7241 | 4005 |
| Tm1 | 2 | 39350 | 5.81e5 | 2.91e5 | 7048 | 5313 |
| Tm1 | 3 | 97179 | 84208 | – | 3750 | 3401 |
| Arpc3B | 1 | 96336 (active) | 52597 | – | 7201 | 2082 |
| CG11426 | 1 | 1.04e5 | 78627 | – | 3496 | 1569 |
| ProtA | 1 | 88545 | 64307 | – | 2385 | 5300 |
| tos | 1 | 59778 | 24342 | – | 2163 | 1051 |
| CG3107 | 1 | 62099 | 78304 | – | 2915 | 2900 |
| CG9759 | 1 | 1.99e5 | 85548 | – | 6871 | 1106 |
| CG6870 | 1 | 1.32e5 | 49338 | – | 3207 | 4921 |
| Or98b | 1 | 1.54e5 | 1.61e5 | – | 3767 | 5045 |
| CG5177 | 1 | 1.17e5 | 97782 | – | 4132 | 4233 |
| mus304 | 1 | 1.15e5 | – | – | 1480 | 5383 |
| CG5062 | 1 | 55040 | 1.25e5 | – | 2184 | 6165 |
| Ir11a | 1 | 61572 | 1.77e5 | – | 1020 | 7200 |
| Tl | 1 | 1.25e5 | 90059 | – | 2880 | 2514 |
| RpLP1 | 1 | 67716 (active) | 27955 | – | 2533 | 1241 |
